The source of these data is publication PMC5446187, “USP9X counteracts differential ubiquitination of NPHP5 by MARCH7 and BBS11 to regulate ciliogenesis” (PLoS Genetics, 2017).

The chains behind the UniProt entries cited, without tags or fusion partners.
UniProt Q93008: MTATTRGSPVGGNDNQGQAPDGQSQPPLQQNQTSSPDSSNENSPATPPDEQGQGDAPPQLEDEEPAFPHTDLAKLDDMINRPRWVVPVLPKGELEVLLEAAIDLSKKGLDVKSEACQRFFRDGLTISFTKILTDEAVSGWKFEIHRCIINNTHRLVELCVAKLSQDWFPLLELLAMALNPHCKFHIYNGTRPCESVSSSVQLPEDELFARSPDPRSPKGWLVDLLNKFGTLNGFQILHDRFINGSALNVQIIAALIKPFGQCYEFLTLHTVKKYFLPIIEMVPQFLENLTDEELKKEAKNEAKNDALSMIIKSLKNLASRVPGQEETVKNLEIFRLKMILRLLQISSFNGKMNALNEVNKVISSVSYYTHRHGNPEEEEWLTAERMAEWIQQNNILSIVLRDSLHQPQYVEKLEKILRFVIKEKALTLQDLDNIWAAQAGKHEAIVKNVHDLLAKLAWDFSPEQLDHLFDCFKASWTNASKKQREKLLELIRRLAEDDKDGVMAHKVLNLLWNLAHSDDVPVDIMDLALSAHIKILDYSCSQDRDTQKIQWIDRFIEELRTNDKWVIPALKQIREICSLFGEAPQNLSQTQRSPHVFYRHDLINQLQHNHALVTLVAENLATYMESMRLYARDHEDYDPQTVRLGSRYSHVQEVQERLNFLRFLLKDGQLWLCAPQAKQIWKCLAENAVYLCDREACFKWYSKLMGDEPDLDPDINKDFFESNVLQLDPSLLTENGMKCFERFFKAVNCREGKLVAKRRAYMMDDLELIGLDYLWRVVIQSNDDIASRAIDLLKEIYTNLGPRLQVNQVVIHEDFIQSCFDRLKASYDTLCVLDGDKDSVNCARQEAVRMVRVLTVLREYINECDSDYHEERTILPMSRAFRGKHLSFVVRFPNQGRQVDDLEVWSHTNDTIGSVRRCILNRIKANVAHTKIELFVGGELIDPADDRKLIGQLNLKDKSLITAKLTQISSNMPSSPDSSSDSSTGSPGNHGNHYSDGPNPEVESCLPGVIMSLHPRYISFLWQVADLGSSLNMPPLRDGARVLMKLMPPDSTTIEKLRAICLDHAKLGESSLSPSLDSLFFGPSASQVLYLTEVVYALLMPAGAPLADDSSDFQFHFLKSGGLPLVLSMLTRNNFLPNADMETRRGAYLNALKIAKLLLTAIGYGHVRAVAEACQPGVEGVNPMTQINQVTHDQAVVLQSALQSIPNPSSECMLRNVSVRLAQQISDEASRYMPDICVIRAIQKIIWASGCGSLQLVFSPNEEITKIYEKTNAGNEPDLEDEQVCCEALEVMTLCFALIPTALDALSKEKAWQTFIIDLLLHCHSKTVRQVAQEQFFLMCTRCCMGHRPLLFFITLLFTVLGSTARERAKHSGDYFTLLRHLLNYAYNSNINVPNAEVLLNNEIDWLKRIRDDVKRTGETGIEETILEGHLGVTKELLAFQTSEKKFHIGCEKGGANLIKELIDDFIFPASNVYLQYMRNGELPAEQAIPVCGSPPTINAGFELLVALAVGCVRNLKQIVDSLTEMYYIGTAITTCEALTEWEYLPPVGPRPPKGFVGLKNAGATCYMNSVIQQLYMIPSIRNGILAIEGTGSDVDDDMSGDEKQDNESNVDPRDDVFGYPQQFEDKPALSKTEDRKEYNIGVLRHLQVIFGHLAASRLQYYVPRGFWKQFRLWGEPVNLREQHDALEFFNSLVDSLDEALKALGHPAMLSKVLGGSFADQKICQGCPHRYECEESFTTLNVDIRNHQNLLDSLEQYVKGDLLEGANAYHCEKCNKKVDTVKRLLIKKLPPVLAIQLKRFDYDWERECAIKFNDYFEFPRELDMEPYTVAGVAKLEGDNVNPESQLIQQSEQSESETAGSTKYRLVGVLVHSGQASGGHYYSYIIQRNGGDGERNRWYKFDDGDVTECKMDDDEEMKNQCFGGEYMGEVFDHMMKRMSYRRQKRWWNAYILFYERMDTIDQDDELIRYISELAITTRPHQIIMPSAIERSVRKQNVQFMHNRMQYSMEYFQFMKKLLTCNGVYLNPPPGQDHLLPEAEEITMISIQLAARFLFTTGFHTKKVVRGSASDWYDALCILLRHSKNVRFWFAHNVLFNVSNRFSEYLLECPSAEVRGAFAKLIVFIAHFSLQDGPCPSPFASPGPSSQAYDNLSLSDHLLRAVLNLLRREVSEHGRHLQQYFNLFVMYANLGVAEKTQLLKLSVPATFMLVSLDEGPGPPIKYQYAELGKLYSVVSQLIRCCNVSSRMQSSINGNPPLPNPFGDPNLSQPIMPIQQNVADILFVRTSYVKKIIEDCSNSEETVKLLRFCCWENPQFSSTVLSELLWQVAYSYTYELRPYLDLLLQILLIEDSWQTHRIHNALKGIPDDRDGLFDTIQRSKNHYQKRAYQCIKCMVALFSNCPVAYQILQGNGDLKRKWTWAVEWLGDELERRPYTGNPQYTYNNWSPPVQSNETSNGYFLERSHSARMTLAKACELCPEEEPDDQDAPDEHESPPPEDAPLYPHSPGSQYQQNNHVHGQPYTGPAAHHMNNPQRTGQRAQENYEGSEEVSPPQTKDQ
UniProt Q13049: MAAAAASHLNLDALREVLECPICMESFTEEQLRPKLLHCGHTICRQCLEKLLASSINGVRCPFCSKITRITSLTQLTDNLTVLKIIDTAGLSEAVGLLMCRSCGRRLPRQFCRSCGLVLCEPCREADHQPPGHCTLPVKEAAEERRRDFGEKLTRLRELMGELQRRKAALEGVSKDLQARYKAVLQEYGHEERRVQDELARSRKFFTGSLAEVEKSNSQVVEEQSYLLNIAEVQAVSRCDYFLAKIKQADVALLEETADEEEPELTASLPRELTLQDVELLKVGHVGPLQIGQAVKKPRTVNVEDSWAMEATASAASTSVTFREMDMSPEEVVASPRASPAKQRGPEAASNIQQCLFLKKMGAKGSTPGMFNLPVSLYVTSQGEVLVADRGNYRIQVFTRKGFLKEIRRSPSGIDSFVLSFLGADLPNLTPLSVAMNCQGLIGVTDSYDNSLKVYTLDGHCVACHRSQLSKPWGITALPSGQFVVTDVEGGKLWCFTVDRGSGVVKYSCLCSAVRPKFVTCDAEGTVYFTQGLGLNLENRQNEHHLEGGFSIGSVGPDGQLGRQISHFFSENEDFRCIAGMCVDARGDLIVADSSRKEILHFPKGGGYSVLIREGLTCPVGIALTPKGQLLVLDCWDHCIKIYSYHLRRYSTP

These are yes or no findings as the source states them, for the method shown. Binding seen in cells or lysates may run through a third protein. Some binding calls cover weakened binding; strength is not graded here. For some of these results: Tags and fused reporters may be left off the sequences shown.

Test [1] deals with T1, Flag-NPHP5 (nephrocystin-5), full length 1-598 (UniProt Q15051).
T1 sequence: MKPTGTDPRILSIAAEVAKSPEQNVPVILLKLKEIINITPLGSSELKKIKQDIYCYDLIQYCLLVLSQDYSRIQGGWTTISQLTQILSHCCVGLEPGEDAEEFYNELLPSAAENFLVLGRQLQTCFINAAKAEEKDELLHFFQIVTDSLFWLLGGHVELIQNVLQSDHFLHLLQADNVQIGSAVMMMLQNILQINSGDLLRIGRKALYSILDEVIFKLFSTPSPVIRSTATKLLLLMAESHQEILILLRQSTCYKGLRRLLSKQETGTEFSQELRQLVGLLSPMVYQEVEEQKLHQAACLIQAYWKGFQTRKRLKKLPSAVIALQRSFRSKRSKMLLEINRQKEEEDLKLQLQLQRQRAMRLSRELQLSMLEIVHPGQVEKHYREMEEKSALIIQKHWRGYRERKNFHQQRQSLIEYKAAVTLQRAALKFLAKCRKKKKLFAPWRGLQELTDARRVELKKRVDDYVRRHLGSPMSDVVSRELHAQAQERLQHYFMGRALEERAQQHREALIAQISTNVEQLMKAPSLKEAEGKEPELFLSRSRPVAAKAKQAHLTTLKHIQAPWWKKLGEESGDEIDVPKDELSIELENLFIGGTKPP
Nature of the test: co-IP; anti-Flag immunoprecipitation from lysates of HEK293 cells expressing Flag-NPHP5 or its fragments (alone or with GFP-tagged partner), Western blot. (A western blot detects proteins with antibodies after separation by electrophoresis.)

A further test concerns the target T2, Flag-NPHP5 20-598 (UniProt Q15051).
T2 sequence: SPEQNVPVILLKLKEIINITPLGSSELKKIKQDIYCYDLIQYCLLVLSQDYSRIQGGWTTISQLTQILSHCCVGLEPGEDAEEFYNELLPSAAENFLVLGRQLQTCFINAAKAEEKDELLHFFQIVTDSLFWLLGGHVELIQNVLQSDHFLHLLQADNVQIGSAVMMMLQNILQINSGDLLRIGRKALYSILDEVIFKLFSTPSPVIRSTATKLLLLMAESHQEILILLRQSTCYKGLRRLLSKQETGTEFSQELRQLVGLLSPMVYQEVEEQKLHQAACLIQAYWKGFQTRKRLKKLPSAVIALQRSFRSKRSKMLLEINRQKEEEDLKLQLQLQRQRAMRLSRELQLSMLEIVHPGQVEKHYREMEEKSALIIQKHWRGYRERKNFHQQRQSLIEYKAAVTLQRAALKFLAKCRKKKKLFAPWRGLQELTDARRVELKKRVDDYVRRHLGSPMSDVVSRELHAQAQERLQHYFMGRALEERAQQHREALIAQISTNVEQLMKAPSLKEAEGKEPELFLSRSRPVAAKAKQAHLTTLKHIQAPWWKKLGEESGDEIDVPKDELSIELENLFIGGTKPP
The test is described as above.

In test [2] the target is T1, Flag-NPHP5 (nephrocystin-5), full length 1-598. Nature of the test: condition: only with 1% SDS (denaturing conditions); co-IP; anti-Flag immunoprecipitation of Flag-NPHP5 from HEK293 lysate under denaturing conditions with 1% SDS, Western blot.
In test [3] the target is T3, NPHP5 (nephrocystin-5), endogenous (human (endogenous in HEK293, U2OS, RPE-1)) (UniProt Q15051).
T3 sequence: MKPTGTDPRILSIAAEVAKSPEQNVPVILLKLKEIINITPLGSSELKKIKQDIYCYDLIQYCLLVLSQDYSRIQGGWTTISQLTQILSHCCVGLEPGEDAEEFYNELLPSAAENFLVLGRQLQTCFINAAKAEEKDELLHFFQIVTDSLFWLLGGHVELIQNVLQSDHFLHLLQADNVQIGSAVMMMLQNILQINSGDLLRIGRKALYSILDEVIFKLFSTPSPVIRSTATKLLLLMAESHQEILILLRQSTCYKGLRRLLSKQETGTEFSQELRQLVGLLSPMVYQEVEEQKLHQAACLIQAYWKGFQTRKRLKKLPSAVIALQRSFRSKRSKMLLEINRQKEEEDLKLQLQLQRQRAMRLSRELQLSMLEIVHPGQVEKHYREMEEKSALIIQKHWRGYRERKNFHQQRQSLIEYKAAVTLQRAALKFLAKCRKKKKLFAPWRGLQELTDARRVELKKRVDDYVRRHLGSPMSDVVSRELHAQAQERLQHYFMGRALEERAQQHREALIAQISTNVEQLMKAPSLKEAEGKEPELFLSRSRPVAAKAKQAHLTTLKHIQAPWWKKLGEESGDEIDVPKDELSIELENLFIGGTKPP
Nature of the test: co-IP; endogenous proteins; anti-NPHP5 (IRCM1, C-terminus) or anti-USP9X immunoprecipitation from HEK293, U2OS and RPE-1 lysates, asynchronous or synchronised in cell cycle phases (strong in G0, G1, S; substantially weaker in G2, M), Western blot.

The target of the next test is T4, Myc-MARCH7 wild type (UniProt Q9H992).
T4 sequence: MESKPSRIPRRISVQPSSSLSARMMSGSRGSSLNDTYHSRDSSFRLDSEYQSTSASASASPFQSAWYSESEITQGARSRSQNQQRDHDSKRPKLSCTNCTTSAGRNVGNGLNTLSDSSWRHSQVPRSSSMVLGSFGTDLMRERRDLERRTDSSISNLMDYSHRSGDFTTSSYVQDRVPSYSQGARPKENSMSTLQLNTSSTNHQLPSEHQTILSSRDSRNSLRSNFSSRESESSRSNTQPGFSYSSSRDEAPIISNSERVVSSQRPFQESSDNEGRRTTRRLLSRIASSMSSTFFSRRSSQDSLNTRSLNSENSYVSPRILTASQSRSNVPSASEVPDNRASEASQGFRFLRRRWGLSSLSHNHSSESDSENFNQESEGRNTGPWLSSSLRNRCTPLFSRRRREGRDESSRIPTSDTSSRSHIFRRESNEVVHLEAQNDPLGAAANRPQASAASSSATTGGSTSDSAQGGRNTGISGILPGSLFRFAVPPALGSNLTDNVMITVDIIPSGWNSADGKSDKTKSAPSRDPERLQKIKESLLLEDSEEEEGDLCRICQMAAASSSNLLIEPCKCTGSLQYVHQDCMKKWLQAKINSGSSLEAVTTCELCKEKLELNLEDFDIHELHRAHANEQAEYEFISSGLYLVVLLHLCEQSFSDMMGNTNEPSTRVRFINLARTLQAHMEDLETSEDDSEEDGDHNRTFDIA
Description: co-IP; anti-Myc immunoprecipitation from lysates of HEK293 cells co-expressing Myc-MARCH7 and Flag-NPHP5, with control or USP9X siRNA (stronger upon USP9X depletion), Western blot.

For test [4], the target named is USP9X/FAM, endogenous (human (endogenous in HEK293, U2OS, RPE-1)) (UniProt Q93008). Nature of the test: co-IP; endogenous proteins; anti-NPHP5 (IRCM1, C-terminus) or anti-USP9X immunoprecipitation from HEK293, U2OS and RPE-1 lysates, asynchronous or synchronised in cell cycle phases (strong in G0, G1, S; substantially weaker in G2, M), Western blot.

As for “GFP-BBS11 wild type (human) (from UniProt Q13049 1-653) (enzyme)”, the binding result in test [1] is recorded as “binds”.

As for “USP9X/FAM, endogenous (from UniProt Q93008 1-2554) (enzyme)”, the binding result in test [1] was “binds”; in the test with Flag-NPHP5 20-598, “no binding”; in test [2], “no binding”; in test [3], “binds”.

B1: Flag-NPHP5 (nephrocystin-5), full length 1-598 (natural protein, UniProt Q15051 1-598, looked up)
chain: MKPTGTDPRILSIAAEVAKSPEQNVPVILLKLKEIINITPLGSSELKKIKQDIYCYDLIQYCLLVLSQDYSRIQGGWTTISQLTQILSHCCVGLEPGEDAEEFYNELLPSAAENFLVLGRQLQTCFINAAKAEEKDELLHFFQIVTDSLFWLLGGHVELIQNVLQSDHFLHLLQADNVQIGSAVMMMLQNILQINSGDLLRIGRKALYSILDEVIFKLFSTPSPVIRSTATKLLLLMAESHQEILILLRQSTCYKGLRRLLSKQETGTEFSQELRQLVGLLSPMVYQEVEEQKLHQAACLIQAYWKGFQTRKRLKKLPSAVIALQRSFRSKRSKMLLEINRQKEEEDLKLQLQLQRQRAMRLSRELQLSMLEIVHPGQVEKHYREMEEKSALIIQKHWRGYRERKNFHQQRQSLIEYKAAVTLQRAALKFLAKCRKKKKLFAPWRGLQELTDARRVELKKRVDDYVRRHLGSPMSDVVSRELHAQAQERLQHYFMGRALEERAQQHREALIAQISTNVEQLMKAPSLKEAEGKEPELFLSRSRPVAAKAKQAHLTTLKHIQAPWWKKLGEESGDEIDVPKDELSIELENLFIGGTKPP
notes: also called IQCB1; source: HEK293, transfected, in lysate; also purified from HEK293 (anti-Flag immunoprecipitation, 500 mM NaCl washes, eluted with Flag peptide)
As to B1, the binding result in the test with Myc-MARCH7 wild type is “binds”.

B2: NPHP5 (nephrocystin-5), endogenous (protein, UniProt Q15051 1-598)
chain: MKPTGTDPRILSIAAEVAKSPEQNVPVILLKLKEIINITPLGSSELKKIKQDIYCYDLIQYCLLVLSQDYSRIQGGWTTISQLTQILSHCCVGLEPGEDAEEFYNELLPSAAENFLVLGRQLQTCFINAAKAEEKDELLHFFQIVTDSLFWLLGGHVELIQNVLQSDHFLHLLQADNVQIGSAVMMMLQNILQINSGDLLRIGRKALYSILDEVIFKLFSTPSPVIRSTATKLLLLMAESHQEILILLRQSTCYKGLRRLLSKQETGTEFSQELRQLVGLLSPMVYQEVEEQKLHQAACLIQAYWKGFQTRKRLKKLPSAVIALQRSFRSKRSKMLLEINRQKEEEDLKLQLQLQRQRAMRLSRELQLSMLEIVHPGQVEKHYREMEEKSALIIQKHWRGYRERKNFHQQRQSLIEYKAAVTLQRAALKFLAKCRKKKKLFAPWRGLQELTDARRVELKKRVDDYVRRHLGSPMSDVVSRELHAQAQERLQHYFMGRALEERAQQHREALIAQISTNVEQLMKAPSLKEAEGKEPELFLSRSRPVAAKAKQAHLTTLKHIQAPWWKKLGEESGDEIDVPKDELSIELENLFIGGTKPP
With B2, the binding entry in test [4] is “binds”.
